Reference: patent US20190177426A1 (BRIGHAM AND WOMEN S HOSPITAL, published 2019)
No constants are given. Whether binding was seen depends on the method and setting. Some entries that bind do so weakly or less than the wild type.

Assays:
[1] = molecular target: T1, human fibulin-3 (human, UniProt Q12805 18-493, limits assumed); assay: Western blot of purified human fibulin-3 resolved in non-reducing conditions, probed with concentrated medium of transfected HEK293 cells (1 mg/ml total protein), detected with anti-human IgG
T1 construct: Purified human fibulin-3 in Western blot, dot blot and BIACORE (there pretreated with 10 mM DTT to dissociate multimers); The same entry is used for fibulin-3 secreted by transfected CNS1 cells and for native fibulin-3 in human tissue sections; also called Fib3; EFEMP1 gene product
T1 sequence (looked up): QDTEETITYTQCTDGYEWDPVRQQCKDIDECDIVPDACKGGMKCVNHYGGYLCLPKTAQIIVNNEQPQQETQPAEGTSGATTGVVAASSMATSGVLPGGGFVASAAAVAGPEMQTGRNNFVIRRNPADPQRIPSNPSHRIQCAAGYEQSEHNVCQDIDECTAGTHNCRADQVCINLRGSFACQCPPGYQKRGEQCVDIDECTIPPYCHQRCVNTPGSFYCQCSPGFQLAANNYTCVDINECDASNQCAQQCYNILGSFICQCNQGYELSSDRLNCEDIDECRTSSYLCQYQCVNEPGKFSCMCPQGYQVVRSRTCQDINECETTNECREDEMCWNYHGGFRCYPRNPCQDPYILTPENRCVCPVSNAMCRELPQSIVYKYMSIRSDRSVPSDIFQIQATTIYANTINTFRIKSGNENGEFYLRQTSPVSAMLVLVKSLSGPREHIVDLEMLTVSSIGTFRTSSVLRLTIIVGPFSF

[2] = molecular target: T1, human fibulin-3; assay: Western blot of purified human fibulin-3 (non-reducing), HEK293 medium 1 mg/ml total protein

B1: semi-humanized mAb428.2 (antibody, V domains shown)
VH: QIQLVQSGPELKKPGETVKISCKASGYSFTTYGMSWVKQAPGKGLKWMGWINTHSGVPTYADDFKGRFAFFLETSASTAYLQINNLKNEDTATYFCARWVDYWGQGTTLTVSS
VL: DIKMTQSPSSMYASLGERVTITCKASQDIKSYLSWHQQKPWKSPKTLIYYATSLADGVPSRFSGSGSGQDYSLTISSLESDDTATYYCLQHGKSPYTFGGGTKLEIKG
- binding [1]: binds
- binding [2]: binds
